Results are given in words; binding and its absence hold for the method and conditions named. In cells and extracts the contact can be indirect. Here binding means that the protein was enriched with, or labelled near, the bait; the list need not be complete. A no says only that the protein was not detected with the bait. For some assays here: Where a sequence is shown, tags or fusion partners need not be part of it.
T1: NUCLEAR RNA POLYMERASE D1 (NRPD1), carboxy-terminal 3×Flag tagged (Arabidopsis thaliana), Q9LQ02
T1 chain: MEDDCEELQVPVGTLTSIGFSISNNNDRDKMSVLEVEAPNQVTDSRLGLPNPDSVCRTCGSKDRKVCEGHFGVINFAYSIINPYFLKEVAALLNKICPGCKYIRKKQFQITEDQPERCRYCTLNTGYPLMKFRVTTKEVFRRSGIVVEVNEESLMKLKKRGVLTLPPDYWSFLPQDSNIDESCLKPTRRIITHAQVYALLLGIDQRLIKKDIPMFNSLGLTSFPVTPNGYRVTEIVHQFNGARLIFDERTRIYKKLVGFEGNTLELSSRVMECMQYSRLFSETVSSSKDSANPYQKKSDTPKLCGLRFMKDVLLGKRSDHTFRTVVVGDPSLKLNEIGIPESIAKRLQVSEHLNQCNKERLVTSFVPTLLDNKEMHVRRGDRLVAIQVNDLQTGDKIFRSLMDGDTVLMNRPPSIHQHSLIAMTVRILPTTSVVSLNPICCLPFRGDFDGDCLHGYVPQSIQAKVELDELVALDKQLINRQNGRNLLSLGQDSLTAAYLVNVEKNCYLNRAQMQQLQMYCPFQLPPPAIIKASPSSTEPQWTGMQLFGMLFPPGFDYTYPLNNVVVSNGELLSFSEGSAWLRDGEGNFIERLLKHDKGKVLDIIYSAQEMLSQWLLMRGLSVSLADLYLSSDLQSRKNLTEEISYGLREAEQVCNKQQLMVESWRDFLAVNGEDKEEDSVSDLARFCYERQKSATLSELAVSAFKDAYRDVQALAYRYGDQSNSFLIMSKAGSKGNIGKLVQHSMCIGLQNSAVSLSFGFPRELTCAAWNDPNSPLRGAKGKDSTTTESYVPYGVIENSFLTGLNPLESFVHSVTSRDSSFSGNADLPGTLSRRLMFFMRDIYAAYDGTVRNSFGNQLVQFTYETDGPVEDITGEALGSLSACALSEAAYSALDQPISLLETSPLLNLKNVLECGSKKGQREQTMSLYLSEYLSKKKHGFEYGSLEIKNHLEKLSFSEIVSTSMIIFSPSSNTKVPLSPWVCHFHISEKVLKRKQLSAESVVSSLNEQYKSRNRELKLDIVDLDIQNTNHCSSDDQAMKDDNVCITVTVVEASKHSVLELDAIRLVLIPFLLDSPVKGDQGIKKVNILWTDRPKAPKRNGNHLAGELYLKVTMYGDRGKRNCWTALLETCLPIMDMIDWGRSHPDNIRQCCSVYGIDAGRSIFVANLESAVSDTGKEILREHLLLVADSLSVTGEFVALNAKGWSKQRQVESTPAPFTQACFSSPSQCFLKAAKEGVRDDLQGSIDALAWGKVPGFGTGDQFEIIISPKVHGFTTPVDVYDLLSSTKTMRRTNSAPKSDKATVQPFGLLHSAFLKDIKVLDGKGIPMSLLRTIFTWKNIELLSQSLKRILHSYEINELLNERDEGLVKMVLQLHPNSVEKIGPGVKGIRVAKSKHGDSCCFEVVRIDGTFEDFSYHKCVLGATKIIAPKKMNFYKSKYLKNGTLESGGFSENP


Experiments:
[1] = molecular target: NUCLEAR RNA POLYMERASE D1 (NRPD1), carboxy-terminal 3×Flag tagged (Arabidopsis thaliana) (UniProt Q9LQ02); assay: affinity purification with mass spectrometry; ~10 g flower tissue of NRPD1-3×Flag and NRPD1-3×Flag-BLRP T4 plants (Col as negative control); lysis buffer 50 mM Tris pH7.6, 150 mM NaCl, 5 mM MgCl2, 10% glycerol, 0.1% NP-40; Dynabeads conjugated with a Flag antibody, 4°C 2.5 hours; eluted with 3×Flag peptide
[2] = molecular target: T1, NUCLEAR RNA POLYMERASE D1 (NRPD1), …; assay: as above; details: remark: other sources report otherwise

Binder | binding [1] | binding [2]
NRPD4/E4 (protein, UniProt Q6DBA5 1-205) MSEKGGKGLKSSLKSKDGGKDGSSTKLKKGRKIHFDQRTPPANYKILNVSSDQQPFQSSAAKCGKSDKPTKSSKNSLHSFELKDLPENAECMMDCEAFQILDGIKGQLVGLSEDPSIKIPVSYDRALAYVESCVHYTNPQSVRKVLEPLKTYGISDGEMCVIANASSESVDEVLAFIPSLKTKKEVINQPLQDALEELSKLKKSE | binds | 
NRPD7 (protein, UniProt Q8LE42 1-174) MFIKVKLPWDVTIPAEDMDTGLMLQRAIVIRLLEAFSKEKATKDLGYLITPTILENIGEGKIKEQTGEIQFPVVFNGICFKMFKGEIVHGVVHKVHKTGVFLKSGPYEIIYLSHMKMPGYEFIPGENPFFMNQYMSRIQIGARVRFVVLDTEWREAEKDFMALASIDGDNLGPF | binds | 
NRPE3B (protein, UniProt Q39212 1-319) MDGVTYQRFPTVKIRELKDDYAKFELRETDVSMANALRRVMISEVPTMAIHLVKIEVNSSVLNDEFIAQRLSLIPLTSERAMSMRFCQDCEDCNGDEHCEFCSVEFPLSAKCVTDQTLDVTSRDLYSADPTVTPVDFTSNSSTSDSSEHKGIIIAKLRRGQELKLKALARKGIGKDHAKWSPAATVTYMYEPDIIINEEMMNTLTDEEKIDLIESSPTKVFGIDPVTGQVVVVDPEAYTYDEEVIKKAEAMGKPGLIEIHPKHDSFVFTVESTGALKASQLVLNAIDILKQKLDAIRLSDNTVEADDQFGELGAHMREG | binds | 
NRPB8B/D8B/E8B, Q9M1A8 1-146 (protein) MASNIIMFEDIFVVDKLDPDGKKFDKVTRVEARSHNLEMFMHLDVNTEVYPLAVGDKFTLAMAPTLNLDGTPDTGYFTPGAKKTLADKYEYIMHGKLYKISERDGKTPKAELYVSFGGLLMLLQGDPAHISHFELDQRLFLLMRKL |  | no binding

The remaining lines, values ahead:

binding [1] | binding [2] | Binder
binds |  | NRPE7 (protein, UniProt A6QRA1 1-178) MFLKVQLPWNVMIPAENMDAKGLMLKRAILVELLEAFASKKATKELGYYVAVTTLDKIGEGKIREHTGEVLFPVMFSGMTFKIFKGEIIHGVVHKVLKHGVFMRCGPIENVYLSYTKMPDYKYIPGENPIFMNEKTSRIQVETTVRVVVIGIKWMEVEREFQALASLEGDYLGPLSEE
no binding |  | SAWADEE HOMEODOMAIN HOMOLOG 2 (SHH2) (protein, UniProt Q8RWJ7 1-348) MGRPPSNGGPAFRFILPEVTEMEAILLQHNTAMPGRHILEALADKFSESPERKGKVVVQFKQIWNWFQNRRYALRARGNKAPGKLNVSSMPRMDLPNQMRSVIQPLSVPKTTHMTGNLPGMTPAPSGSLVPGVMRSGSDNSYLEFEAKSARDGAWYDVQAFLAHRNLEIGDPEVQVRFAGFEVEEDEWINVKKHVRQRSLPCEASECVAVLAGDLVLCFQEGKDQALYFDAIVLDAQRRRHDVRGCRCRFLVRYSHDQSEEIVPLRKICRRPETDYRLQQLHNAVNDLANSNQHQIPALDAAAKTPLSLPGATVPIVAPESKDPSLSATPATLVQPSSNAATVPAGSA
binds |  | NRPE5B (protein, UniProt Q9ZVB9 1-218) MEGKGKEIVVGHSISKSSVECHKYYLARRTTMEMLRDRGYDVSDEDINLSLQQFRALYGEHPDVDLLRISAKHRFDSSKKISVVFCGTGIVKVNAMRVIAADVLSRENITGLILVLQSHITNQALKAVELFSFKVELFEITDLLVNVSKHVLRPKHQVLNDKEKESLLKKFSIEEKQLPRLSSKDPIVRYYGLETGQVMKVTYKDELSESHVTYRCVS
binds |  | SAWADEE HOMEODOMAIN HOMOLOG 1 (SHH1), endogenous (protein, UniProt Q9XI47 1-258) MAASDDSSHYFTEFTLSEIVDMENLYKELGDQSLHKDFCQTVASTFSCSVNRNGKSSITWKQVQIWFQEKLKHQSQPKSKTLPSPPLQIHDLSNPSSYASNASNATFVGNSTFVQTRKGKASDLADLAFEAKSARDYAWYDVSSFLTYRVLRTGELEVRVRFSGFDNRHDEWVNVKTSVRERSIPVEPSECGRVNVGDLLLCFQEREDQALYCDGHVLNIKRGIHDHARCNCVFLVRYELDNTEESLGLERICRRPEE

From paper PMC3141008
